Experimental data: PubChem BioAssay AID2685 (National Center for Advancing Translational Sciences (NCATS), 2010)
The other results are listed elsewhere or left out. Shown are side measurements of this screen, not its main read-out; they come without a call. The list favours compounds with an active or inconclusive main result. The note in brackets gives the kind of curve behind each potency; many fits are weak.

Assay: qHTS Assay for Lipid Storage Modulators in Drosophila S3 Cells;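 for cell number change: cells counted by Cell Tracker Red CMTPX staining in the red channel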
Details: BODIPY lipid droplet fluorescence, 18-24 h; for cell number change: measured here: cell count max response, cells fed with added oleic acid
Method in brief: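 Drosophila S3 cells loaded with oleic acid (400 uM, as added) and compounds at several concentrations; lipid droplets imaged by 488-nm laser-scanning cytometry, 500–530 nm intensity and object ratio to cell channel. Percent activity normalized to 20 uM Triacsin C.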

[1] = measured here: cell number channel AC50, cells fed with added oleic acid
[2] = measured here: lipid fluorescence (Fed channel) AC50, cells fed with added oleic acid

O=C(CSc1nc2ccccc2[nH]1)Nc1ccc(F)c(F)c1
cell number change: -36.9%
AC50 [1]: 23.1 µM [falling, single point]
AC50 [2]: 2.59 µM [rising, partial curve]

c1nc2sc3c(c2c2nnnn12)CCCC3
cell number change: 3.71%

CC(C)NS(=O)(=O)c1ccc(OCC(=O)NCc2cccnc2)cc1
cell number change: 6.76%
AC50 [1]: 0.731 µM [falling, single point]

N#C/C(=C/c1ccc(N2CCOCC2)c([N+](=O)[O-])c1)C(N)=O
cell number change: -0.402%
AC50 [1]: 0.82 µM [falling, full curve, poor fit]
AC50 [2]: 0.0058 µM [falling, full curve, poor fit]

Cc1nc(NC(=O)CN(C)S(=O)(=O)c2ccc(Br)cc2)sc1C
cell number change: -8.17%
AC50 [2]: 1.84 µM [rising, partial curve]

Cc1c(Cl)cccc1NC(=O)CSc1nncn1-c1ccccn1
cell number change: 14.5%

CCCCNC(=S)N/N=C/C1=CCC2CC1C2(C)C (configuration not stated)
cell number change: -100%
AC50 [1]: 29.1 µM [falling, partial curve, poor fit]

O=C(Cc1cc(=O)[nH][nH]1)N/N=C/c1c(F)cccc1Cl
cell number change: 6.12%
AC50 [2]: 6.51 µM [falling, single point]

CCCCCC(=O)N(O)C1CC(=O)N(c2ccccc2)C1=O (configuration not stated)
cell number change: -90.9%
AC50 [1]: 25.9 µM [falling, partial curve]
AC50 [2]: 18.4 µM [falling, partial curve]

CC1CCCN(S(=O)(=O)c2ccc(C(=O)Nc3nnc(C4=COCCO4)o3)cc2)C1 (configuration not stated)
AC50 [2]: 29.1 µM [falling, single point]

Cc1ccc(S(=O)(=O)N2CCN(C(=O)c3ccccc3)C2)cc1[N+](=O)[O-]
cell number change: 15.4%
AC50 [2]: 0.146 µM [rising, full curve, poor fit]

O=C(CN1CCCCC1)Nc1nc(-c2ccc(Cl)cc2)cs1
cell number change: -5.83%
AC50 [2]: 0.116 µM [falling, full curve, poor fit]

NC(=O)CC(NC(=O)c1ccccc1)c1ccc(N2CCC(Br)CC2)c([N+](=O)[O-])c1 (configuration not stated)
cell number change: -8.92%
AC50 [2]: 32.6 µM [falling, single point]

CCC(C)[C@H](NC(=O)N1CCn2c1nc1ccccc12)C(=O)NCCc1ccccc1 (some centres not stated)
cell number change: -6.6%

COC(=O)Nc1c(C)n(C)n(-c2ccccc2)c1=O
AC50 [1]: 0.206 µM [rising, full curve, poor fit]

O=[N+]([O-])c1cccc2ccc(N3CCOCC3)nc12
cell number change: 2.92%
AC50 [2]: 6.51 µM [falling, single point]

O=C(Nc1ccc([N+](=O)[O-])cc1)Nc1ccon1
cell number change: -12.4%
AC50 [2]: 6.51 µM [falling, single point]

CC(C)(C)[C@H](NC(=O)c1ccc(N)c(Cl)c1)C(=O)N1CCC[C@H]1C(=O)N[C@H](C#N)Cc1nn[nH]n1
AC50 [1]: 0.0517 µM [falling, full curve, poor fit]
AC50 [2]: 0.731 µM [falling, single point]

Cc1ccc(-c2csc(=S)n2CC(=O)OCC(=O)NCc2ccc(F)cc2)cc1
cell number change: 31.1%
AC50 [1]: 0.517 µM [rising, full curve]
AC50 [2]: 0.58 µM [rising, single point]

CCCN(CCC)Cc1c(C(=O)OCC)nnn1-c1nonc1N
cell number change: -19.3%
AC50 [2]: 3.66 µM [rising, single point]

Cn1c(Cc2nc3ccccc3n2C)nc2ccccc21
cell number change: 16.4%

O=Nc1c(-c2cccc([N+](=O)[O-])c2)nc2ncccn12
cell number change: -58.3%
AC50 [1]: 18.4 µM [falling, single point]
AC50 [2]: 20.6 µM [falling, single point]

COc1ccccc1/C=C/C=N\N1CCN(Cc2ccccc2Cl)CC1
cell number change: 2.63%
AC50 [2]: 0.651 µM [rising, full curve]

COc1ccc(OC)c(N/C(C)=C/C(=O)c2ccc(C)o2)c1
AC50 [1]: 6.51 µM [rising, single point]
AC50 [2]: 5.8 µM [rising, full curve]

O=C(CC1C(=O)NC2CCCCC2N1C(=O)c1ccc(F)cc1)Nc1ccccc1 (configuration not stated)
AC50 [2]: 23.1 µM [falling, partial curve, poor fit]

O=C(CCCn1c(=S)[nH]c2cc3c(cc2c1=O)OCO3)N1CCN(c2ncccn2)CC1
cell number change: -35.2%
AC50 [1]: 29.1 µM [falling, single point]

O=C(c1ccc(S(=O)(=O)NCC2CCCO2)cc1)N1CCN(c2ccccc2)CC1 (configuration not stated)
cell number change: -16%
AC50 [1]: 2.06 µM [falling, single point]
AC50 [2]: 1.03 µM [falling, full curve, poor fit]

O=C(O)C1CCN(c2ccc(S(=O)(=O)N3CCOCC3)cc2[N+](=O)[O-])CC1
cell number change: -12.9%
AC50 [2]: 0.58 µM [falling, partial curve, poor fit]

CCN(CC)CCNC(=O)c1ccc(NS(=O)(=O)c2ccc3c(c2)OCCO3)cc1
cell number change: 72.7%
AC50 [1]: 18.4 µM [rising, single point]

CN(C)C(CNC(=O)C1CC(=O)N(Cc2ccccc2)C1)c1ccccc1 (configuration not stated)
cell number change: 6.42%
AC50 [2]: 32.6 µM [falling, single point]

Cc1ccc(OC(=O)c2ccccc2P(=O)(O)O)cc1
cell number change: -6.45%
AC50 [1]: 0.731 µM [falling, single point]
AC50 [2]: 11.6 µM [falling, partial curve]

O=C1/C(=C\c2ccco2)CCC/C1=C\c1ccco1
AC50 [2]: 16.4 µM [falling, partial curve]

CCC(=O)c1ccc(OCC(=O)Nc2ccccc2N2CCOCC2)cc1
cell number change: -14.8%
AC50 [2]: 6.51 µM [rising, full curve, poor fit]

O=C(Nc1cc([N+](=O)[O-])ccc1Cl)C(Sc1ccccc1)c1ccccc1 (configuration not stated)
cell number change: -0.994%
AC50 [2]: 1.64 µM [rising, partial curve, poor fit]

COc1ccc(C(=O)N2CCN=C2SC)cc1OC
cell number change: 0.304%
AC50 [2]: 0.366 µM [falling, partial curve]

CCOCCCNC(=O)Cc1ccc(-n2c(CC)nc3cccnc32)cc1
cell number change: -27.9%
AC50 [1]: 4.11 µM [falling, full curve, poor fit]

O=C(COC(=O)c1ccccc1O)Nc1cccc(S(=O)(=O)N2CCCC2)c1
AC50 [2]: 3.66 µM [falling, partial curve]
